Measurements reported in PubChem BioAssay AID1159578 (Peter MacCallum Cancer Centre, 2015)
Test: 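Genome-wide hunt for genes controlling movement of lymphatic endothelial cells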 (primary screen). Cell system: human lymphatic endothelial cells. Reagent: siRNA pool against human genes, 40 nM. Duration: 48 h after transfection. Measurement: 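Cells stained with dye and imaged after a scratch; covered wound area and nuclei counted, duplicates averaged, migration set against mock wells and turned into a robust z-score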. Reading the numbers: migration robust z-score: higher = faster migration into the scratch; nuclei per well: higher = more cells in the well. Call rule: 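Migration changed when robust z exceeds 2 or falls below -2 and mean nuclei number is at least 3300; otherwise not called changed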. Meaning of the calls: active = migration changed; inactive = no migration change, or too few cells.
In all, the deposit lists about 18,000 reagents; this is an unselected part. Over the whole deposit, about 1,030 (5.7%) were called active. 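Inactive calls also include pools with fewer than 3300 nuclei, whose migration was not assessed.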 Raw values are not corrected between plates. Reagents against one gene are numbered here. Not all columns of the deposit are shown.

The opening 4 records, ahead of the listing:
| gene knocked down | reagent no. | migration robust z-score | migration class with cell-count check | nuclei per well, duplicate mean | call |
| --- | --- | --- | --- | --- | --- |
| DHCR24 | 1 | -1.77 | under 3300 nuclei; migration not judged | 3086 | inactive |
| TYMSOS | 1 | -1.84 | migration z between -2 and 2; enough cells | 5720 | inactive |
| ANKRD34A | 1 | -0.3 | migration z between -2 and 2; enough cells | 6074 | inactive |
| IKBKB | 1 | -1.66 | migration z between -2 and 2; enough cells | 4478 | inactive |

Main list, repeating the preview:
| gene knocked down | reagent no. | migration robust z-score | migration class with cell-count check | nuclei per well, duplicate mean | call |
| --- | --- | --- | --- | --- | --- |
| DHCR24 | 1 | -1.77 | under 3300 nuclei; migration not judged | 3086 | inactive |
| TYMSOS | 1 | -1.84 | migration z between -2 and 2; enough cells | 5720 | inactive |
| ANKRD34A | 1 | -0.3 | migration z between -2 and 2; enough cells | 6074 | inactive |
| IKBKB | 1 | -1.66 | migration z between -2 and 2; enough cells | 4478 | inactive |
| JMJD1C | 1 | 1.54 | migration z between -2 and 2; enough cells | 6235 | inactive |
| TMEM68 | 1 | -0.86 | migration z between -2 and 2; enough cells | 6262 | inactive |
| ARF6 | 1 | -1.04 | migration z between -2 and 2; enough cells | 5172 | inactive |
| CEP250 | 1 | -0.75 | migration z between -2 and 2; enough cells | 4468 | inactive |
| EOLA1 | 1 | -1.95 | migration z between -2 and 2; enough cells | 4414 | inactive |
| SETBP1 | 1 | -1.52 | migration z between -2 and 2; enough cells | 4774 | inactive |
| NUP43 | 1 | -2.08 | migration z below -2; enough cells | 4270 | active |
| PER3 | 1 | 0.72 | migration z between -2 and 2; enough cells | 5884 | inactive |
| SMTNL2 | 1 | -0.93 | migration z between -2 and 2; enough cells | 5614 | inactive |
| MECOM | 1 | 0.65 | migration z between -2 and 2; enough cells | 6308 | inactive |
| MECOM | 2 | 0.34 | migration z between -2 and 2; enough cells | 5838 | inactive |
| FCN3 | 1 | -0.34 | migration z between -2 and 2; enough cells | 6065 | inactive |
| SMCO3 | 1 | -1.15 | migration z between -2 and 2; enough cells | 5799 | inactive |
| RPL36 | 1 | -0.43 | migration z between -2 and 2; enough cells | 5055 | inactive |
| NHERF4 | 1 | -2.01 | migration z below -2; enough cells | 6246 | active |
| IDH2 | 1 | -0.21 | migration z between -2 and 2; enough cells | 4564 | inactive |
| TECTA | 1 | -0.5 | migration z between -2 and 2; enough cells | 7214 | inactive |
| STARD10 | 1 | -0.3 | migration z between -2 and 2; enough cells | 7450 | inactive |
| CDKL5 | 1 | -2.39 | migration z below -2; enough cells | 4294 | active |
| WRNIP1 | 1 | 0.8 | migration z between -2 and 2; enough cells | 6822 | inactive |
| RCN3 | 1 | -1.66 | migration z between -2 and 2; enough cells | 5178 | inactive |
| ITIH5 | 1 | 0.18 | migration z between -2 and 2; enough cells | 6334 | inactive |
| PRXL2C | 1 | -1.41 | migration z between -2 and 2; enough cells | 4133 | inactive |
| MEA1 | 1 | -0.64 | migration z between -2 and 2; enough cells | 6864 | inactive |
| WASF1 | 1 | 1.11 | migration z between -2 and 2; enough cells | 6020 | inactive |
| PLXDC2 | 1 | -3.85 | migration z below -2; enough cells | 4940 | active |
| PTGDR2 | 1 | -0.31 | migration z between -2 and 2; enough cells | 6344 | inactive |
| BPIFB6 | 1 | -0.24 | migration z between -2 and 2; enough cells | 6320 | inactive |
| GALNT11 | 1 | 1.06 | migration z between -2 and 2; enough cells | 4824 | inactive |
| VRTN | 1 | -0.98 | migration z between -2 and 2; enough cells | 6276 | inactive |
| GSTA3 | 1 | 1.19 | migration z between -2 and 2; enough cells | 6346 | inactive |
| ST3GAL5 | 1 | 1.14 | migration z between -2 and 2; enough cells | 6188 | inactive |
| NLRP13 | 1 | -1.06 | migration z between -2 and 2; enough cells | 5594 | inactive |
| KCNE5 | 1 | -0.39 | migration z between -2 and 2; enough cells | 5832 | inactive |
| LAMC3 | 1 | 0.28 | migration z between -2 and 2; enough cells | 5490 | inactive |
